Measurements from patent publication EP3381935A1 (Tigo GmbH, dated 2018).
Substitutions are numbered along the chain they refer to. Names and notes keep the numbering of the source. No constants are given. Whether binding was seen depends on the method and setting. Some results given as binding are weak or reduced against the parent protein; the word gives no strength. Values belong to the binder of their own block, whether it stands above or below them.

Legend:
[1] = target: T1, recombinant hIFN-γ receptor (the extracellular part of the IFNGR1) (human) (UniProt P15260); assay: ITC
T1 sequence (looked up): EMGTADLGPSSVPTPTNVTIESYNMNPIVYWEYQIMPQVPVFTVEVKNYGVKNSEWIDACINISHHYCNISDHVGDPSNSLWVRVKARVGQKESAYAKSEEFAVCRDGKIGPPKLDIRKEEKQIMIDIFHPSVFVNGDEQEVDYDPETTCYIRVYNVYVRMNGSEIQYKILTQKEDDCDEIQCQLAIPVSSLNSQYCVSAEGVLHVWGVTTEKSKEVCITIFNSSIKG

[2] = target: T1, recombinant hIFN-γ receptor (the extracellular part of the IFNGR1) (human); assay: SPR
[3] = target: T1, recombinant hIFN-γ receptor (the extracellular part of the IFNGR1) (human); assay: SPR, summary

binding [1]: binds | binding [2]: binds
B1: K88Q (138 aa) (ligand, human, UniProt P01579 24-161, looked up)
chain: QDPYVKEAENLKKYFNAGHSDVADNGTLFLGILKNWKEESDRKIMQSQIVSFYFKLFKNFKDDQSIQKSVETIKEDMNVKFFNSNKKQRDDFEKLTNYSVTDLNVQRKAIHELIQVMAELSPAAKTGKRKRSQMLFRG
notes: range 1-138; also called Control 3: K88Q(138 aa); Control 2: K88Q

binding [3]: binds | binding [2]: binds
B2: anti-gamma mutant protein K88Q_D41N (138 aa) (ligand)
chain: B1 chain with D41N
